# Assay results from PubChem BioAssay AID2058 (Sanford-Burnham Center for Chemical Genomics, 2009).
# Protein sequences, listed by entry. Tags and fused reporters are not part of them. Lines headed by an entry give the natural chain unless they say otherwise; changes in a name come on top.
# UniProt Q9HC97: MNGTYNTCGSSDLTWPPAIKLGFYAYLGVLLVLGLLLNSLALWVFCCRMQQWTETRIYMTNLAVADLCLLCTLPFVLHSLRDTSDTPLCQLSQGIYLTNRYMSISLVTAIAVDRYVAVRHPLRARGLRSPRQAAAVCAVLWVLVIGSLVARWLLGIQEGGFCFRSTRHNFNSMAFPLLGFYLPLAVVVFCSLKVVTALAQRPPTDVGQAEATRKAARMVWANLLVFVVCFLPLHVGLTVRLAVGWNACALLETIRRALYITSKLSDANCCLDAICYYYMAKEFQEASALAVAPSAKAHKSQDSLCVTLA
# Out of some 290,000 compounds screened, about 150 (0.052%) were called active. The shares of active, inactive and inconclusive entries below differ from those in the screen.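 How the source made its calls: active means inhibition of at least 50% with at least 30 cells and total cytoplasm GFP at most 10,000,000; inconclusive means under 30 cells or total GFP of 10,000,000 plus; inactive means the rest.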
# Biological target: G-protein coupled receptor 35 (Homo sapiens) (UniProt Q9HC97)
# Test: GPR35 antagonists blocking zaprinast-driven arrestin recruitment, primary screen, imaging, U2OS, beta-arrestin-GFP, zaprinast agonist (AID 2058)
# Details: U2OS GPR35 beta-arrestin-GFP translocation imaging, zaprinast antagonism; at 10 µM; hits give high values
row,Compound,inhibition
1,COc1ccc2c(c1)NC(c1cc(Cl)cc(Cl)c1O)c1cccn1-2 (stereo not given),inactive: 12.6%
2,O=C(/C=C/c1ccccc1)NC(NC(=S)Nc1ccc(Cl)cc1Cl)C(Cl)(Cl)Cl (stereo not given),active: 76.2%
3,COc1ccc(OC(C)C(=O)Nc2ccc(F)cc2F)cc1 (stereo not given),inconclusive: 4.4%
4,COc1ccc2c(c1)NC(c1ccc(N(C)C)cc1)c1cccn1-2 (stereo not given),active: 83.6%
5,N#C/C(=C/c1ccc(N2CCCCC2)o1)C(=O)Nc1ccc2ccccc2c1,inconclusive: 114%
6,N=c1oc2c3c4c(cc2cc1C(=O)Nc1ccccc1)CCCN4CCC3,inconclusive: 119%
7,CCCCN(C)C1=CC2=CC(=C(C#N)C#N)CCC2CC1 (stereo not given),inconclusive: 114%
8,CCN(CC)S(=O)(=O)c1ccc(Cl)c(NC(=O)c2ccccc2C)c1,inactive: 4.8%
9,CC(C)(C)C(=O)/C=c1\s/c(=C\c2ccc(-c3ccc([N+](=O)[O-])cc3)o2)c(=O)n1CC(=O)NC(N)=O,inconclusive: 114%
10,NS(=O)(=O)c1ccc(NC(=O)CN2CCCC2)cc1,inconclusive: 38.5%
11,O=[N+]([O-])c1c(Nc2cccc(O)c2)cc(Cl)c2nonc12,inactive: 35%
12,CCc1nnc(NC(=O)c2cc(S(=O)(=O)N3CCOCC3)ccc2N2CCCCC2)s1,inactive: 4.8%
13,O=C(/C=C/c1ccncc1)c1cc(Cl)ccc1O,active: 96.6%
14,CC(C)NC(=O)/C(C#N)=C\c1ccc(N(C)C)o1,active: 50%
15,COCCNC(=O)C(OC(=O)CC1Sc2ccccc2NC1=O)c1ccccc1 (stereo not given),inconclusive: 1.6%
16,CN(C)/C=C1\SC(=S)N(c2ccc(F)cc2)C1=O,inactive: 9.5%
17,O=C(NCc1nnc(SCc2ccc(F)cc2)n1-c1ccccc1)C12CC3CC(CC(C3)C1)C2,inactive: -5.2%
18,Cc1[nH]ccc(=O)c1OCc1ccc(Cl)cc1,inconclusive: 122%
19,COc1ccc(OC)c(C2C3CN(C(C)C)CC=C3C(C#N)=C(N)C2(C#N)C#N)c1 (stereo not given),inconclusive: 97.6%
20,CC(NC(=O)C(=S)N1CCN(C)CC1)c1ccccc1 (stereo not given),inconclusive: 22%
21,Cc1ccc(-c2n[nH]c(=S)n2C)cc1Cl,inconclusive: 14.8%
22,C(/C=C/C=C/Nc1ccccc1)=Nc1ccccc1,active: 90.5%
23,CCN1/C(=C/c2ccc3cc(C)ccc3[n+]2CC)Sc2cc(C)ccc21,inconclusive: 118%
24,Cn1c(CCNC(=O)c2ccccc2F)nnc1SCC(=O)Nc1ccccc1F,inconclusive: 12.4%
25,NNC(=O)c1oc2nc(-c3ccco3)cc(-c3ccco3)c2c1N,active: 92.5%

row,Compound,inhibition
1,O=C(CCN1C(=O)/C(=C/c2ccc3c(c2)OCO3)SC1=S)Nc1ccc(C(=O)O)cc1,inactive: 0.4%
2,O=C(CCCN1C(=O)/C(=C/c2cccs2)SC1=S)Nc1ccc(O)c(C(=O)O)c1,active: 99.6%
3,CCOc1ccc(NC(=S)N(CCN2CCOCC2)Cc2cc3cc4c(cc3[nH]c2=O)OCCO4)cc1,inactive: 6.4%
4,COCCN1C(=O)/C(=C/c2ccc(N3CCCC3)cc2C)SC1=S,inconclusive: 69.9%
5,Cc1ccc(/C=C2/SC(=S)N(CCC(=O)N3CCN(c4ccccc4)CC3)C2=O)cc1,inactive: -11.1%
6,CC(C)N1CC=C2C(C#N)=C(N)C(C#N)(C#N)C(c3ccccc3)C2C1 (stereo not given),active: 69%
7,CSc1ccc(Cl)c(C(=O)Nc2ccc(C)cn2)c1,inconclusive: -5.2%
8,N#C/C(=C/c1ccc(N2CCCCCC2)o1)c1cccc(F)c1,active: 104%
9,CCN1/C(=C/c2ccc3cccc(C)c3[n+]2CC)Sc2ccccc21,inconclusive: 108%
10,Cc1cc(C)n(CC(O)Cn2cnc3c2c(=O)n(C)c(=O)n3C)n1 (stereo not given),inconclusive: -0.4%
11,Cc1ccc(CN=Cc2[nH]c3ccc(Br)c(Cl)c3c2O)cc1,inconclusive: 111%
12,COc1ccc(OC)c(S(N)(=O)=O)c1,inconclusive: 15.8%
13,CC1OC(OC2C(OC3C(O[C@H]4CC[C@]5(C)C6C=C[C@]78OC[C@@]9(CC[C@@H](C)[C@H](C)C97)[C@H](O)C[C@@]8(C)[C@]6(C)CC[C@H]5C4(C)C)OC(C)C(O)C3O)OC(CO)C(O)C2O)C(O)C(O)C1O (stereo not given in full),inconclusive: 53.9%
14,CCN1/C(=C/c2ccc3ccc(C)cc3[n+]2CC)Sc2ccccc21,inconclusive: 120%
15,N#Cc1cccc(NC(=O)NCCc2c[nH]c3ccccc23)c1,inactive: -5.4%
16,N#CC1=C(N)C(C#N)(C#N)[C@H](c2ccoc2)[C@H]2CN(Cc3ccccc3)CC=C12,inactive: 9.6%
17,COc1cccc(Nc2nc(N)c([N+](=O)[O-])c(N3CCOCC3)n2)c1,inactive: 0.4%
18,CCCCC(=O)N/N=C(C)/C=C/c1ccccc1F,inconclusive: 8.3%
19,OCC1CCCCN1C(=S)Nc1cccc(Cl)c1 (stereo not given),inconclusive: 5.6%
20,CCN1/C(=C/c2ccc3cc(C)ccc3[n+]2C)Sc2ccc3sccc3c21,inconclusive: 111%
21,COc1ccc(NC(=O)/C(Cl)=C(/Cl)S(=O)Cc2ccccc2Cl)cn1 (stereo not given),active: 115%
22,CC(C(=O)NCc1ccco1)n1nc(-c2ccccc2)c2cc(Cl)ccc21 (stereo not given),inactive: 7.1%
23,COC(=O)c1cc(NC(=O)c2cccc(Cl)c2)c(=O)oc1/C=C/Nc1cc(C)cc(C)c1,active: 93.3%
24,CN1CC=C2C(C#N)=C(N)C(C#N)(C#N)C(CCc3ccccc3)C2C1 (stereo not given),inconclusive: 97.3%
25,N#C/C(=C/c1ccc(Sc2nc3ccccc3[nH]2)o1)c1cccc(F)c1,inactive: -1.5%

# 2 entries from above in another layout:
row	Compound	inhibition
12	COc1ccc(OC)c(S(N)(=O)=O)c1	inconclusive: 15.8%
13	CC1OC(OC2C(OC3C(O[C@H]4CC[C@]5(C)C6C=C[C@]78OC[C@@]9(CC[C@@H](C)[C@H](C)C97)[C@H](O)C[C@@]8(C)[C@]6(C)CC[C@H]5C4(C)C)OC(C)C(O)C3O)OC(CO)C(O)C2O)C(O)C(O)C1O (stereo not given in full)	inconclusive: 53.9%

# Remaining list, next part

row,Compound,inhibition
1,COc1ccc(NC(=S)N(CCN2CCOCC2)Cc2cc3cc4c(cc3[nH]c2=O)OCCO4)cc1,active: 98.1%
2,COc1ccc2c(c1)c(/C=C/c1cc[n+](C)cc1)cn2C,inactive: 48.7%
3,O=C(Cn1cncn1)N/N=C/c1cccnc1,inactive: -13.5%
4,CCN1CC=C2C(C#N)=C(N)C(C#N)(C#N)C(c3cc(Cl)ccc3Cl)C2C1 (stereo not given),inconclusive: 110%
5,COc1ccc(CC2(C)OC(c3ccc(Cl)cc3)=NN2C(C)=O)cc1 (stereo not given),inconclusive: 5.5%
6,CCOC(=O)CC1C(=O)NCCN1C(=O)c1ccc(Cl)cc1Cl (stereo not given),inconclusive: 120%
7,CCOC(=O)c1c(-c2ccccc2)csc1NC(=O)/C(C#N)=C/c1ccc(OC)c(OC)c1,inactive: -10.8%
8,Cc1cccc(N=Cc2[nH]c3ccc(Br)c(Cl)c3c2O)c1,active: 54%
9,Cc1cc(C(=O)OCC(=O)NC2CCS(=O)(=O)C2)c2ccccc2n1 (stereo not given),inconclusive: -4.6%
10,Cc1cccc(C(=O)N[C@H](C(=O)Nc2nc3ccc(S(C)(=O)=O)cc3s2)C(C)C)c1,inconclusive: 6.3%
11,CCN(CC)c1ccc(/C=C(/C#N)C(=O)NC(C)C)o1,inactive: 14.3%
12,CCCCOC(=O)c1ccc(NC(=O)c2ccccc2OC)cc1,inactive: 12.9%
13,CC(=O)c1cccc(OCc2cc(C(=O)N3C[C@@H](C)O[C@@H](C)C3)no2)c1,inactive: 4.5%
14,COc1ccc(/C=N/NC(=O)c2ccc(O)cc2O)cc1CSc1ccccn1,inconclusive: -1.6%
15,COc1ccccc1-c1noc(-c2ccccc2C(=O)NCc2ccco2)n1,inconclusive: -0.5%
16,Cc1ccc(/C=C2/SC(=S)N(CCCC(=O)Nc3ccc(O)cc3)C2=O)cc1,inactive: 36.2%
17,COc1cccc(N2CCN(C(=O)CCn3c(=S)[nH]c4cc5c(cc4c3=O)OCO5)CC2)c1,inconclusive: 0%
18,CCCNC(=O)Cn1c(=O)/c(=C\c2ccc(-c3ccc([N+](=O)[O-])cc3)o2)s/c1=C\C(=O)C(C)(C)C,inconclusive: 114%
19,CC(=O)Nc1ccc(N=Cc2c(O)c(C(=O)Nc3ccccc3)cc3ccccc23)cc1,inconclusive: 104%
20,CCN1/C(=C/c2ccc3cc(C)cc(C)c3[n+]2CC)Sc2cc(C)ccc21,inconclusive: 118%
21,CN(C)c1ccc(/C=C/C(=O)c2cc(Cl)ccc2O)cc1,active: 57.6%
22,N#C/C(=C/c1ccc(N2CCCCC2)o1)c1cccc(F)c1,active: 55.7%
23,CCc1ccc(/C=C2/SC(=S)N(CCC(=O)Nc3cccnc3)C2=O)cc1,inactive: -11.4%
24,C=CC[n+]1c(-c2ccc(Cl)cc2Cl)csc1Nc1c(C)n(C)n(-c2ccccc2)c1=O,inconclusive: -36.1%
25,Cc1nc(CC(=O)O)c(-c2ccccc2)s1,inactive: -2.4%

# Exported as tab-separated lines: entries from further up.
row	Compound	inhibition
2	COc1ccc2c(c1)c(/C=C/c1cc[n+](C)cc1)cn2C	inactive: 48.7%
3	O=C(Cn1cncn1)N/N=C/c1cccnc1	inactive: -13.5%
4	CCN1CC=C2C(C#N)=C(N)C(C#N)(C#N)C(c3cc(Cl)ccc3Cl)C2C1 (stereo not given)	inconclusive: 110%

# Following part:

row,Compound,inhibition
1,CCn1c(O)c(/C=C/C=C/C=Nc2ccccc2)sc1=S,inactive: -0.5%
2,CC[n+]1c(C=C2C=C(C)OC(C)=C2)sc2ccccc21,inactive: 11.8%
3,COc1ccc(C(CCN2CCCC(C)C2)c2c(OC)cc(OC)c3c2OC(=O)CC3c2cc(OC)c(OC)c(OC)c2)cc1 (stereo not given),inconclusive: 124%
4,Cc1cc(NC(=O)C2Oc3ccccc3OC2C)no1 (stereo not given),inconclusive: -10%
5,Cc1ccc2nc(/C(C#N)=C\c3ccc(N4CCOCC4)o3)[nH]c2c1,inconclusive: 110%
6,Nc1cc(=O)[nH]c(SCc2nnnn2-c2ccc(Cl)cc2)n1,inconclusive: -16%
7,Cc1ccc(/C=N/n2c(C)nnc2C)o1,inconclusive: -3.8%
8,CCN(CC)c1ccc(/C=C(\C#N)C(=O)c2ccc(Br)cc2)cc1,inconclusive: 108%
9,O=C1S/C(=C/c2ccc(N3CCOCC3)o2)C(=O)N1Cc1c(F)cccc1Cl,inconclusive: 103%
10,CCCn1c(=O)[nH]c(=O)c2c1nc(-c1ccc(C(F)(F)F)cc1)n2CCOC,inactive: 2.1%
11,CC(=O)n1nc(-c2ccccc2)nc1NCc1ccc(N(C)C)cc1,inconclusive: -2.5%
12,CN(Cc1cc(=O)n2ccsc2n1)c1ccccc1,inconclusive: 23.6%
13,CCCC1C2CN(C(C)C)CC=C2C(C#N)=C(N)C1(C#N)C#N (stereo not given),active: 112%
14,COc1cc(N2CCCC2)c(OC)cc1/C=c1/sc2nc3ccccc3n2c1=O,inconclusive: 93.8%
15,CCn1c(Oc2ccc(F)cc2)nc2c1c(=O)n(C)c(=O)n2C,inactive: 5.5%
16,CSc1nc2ccccc2cc1/C=C(\C#N)c1ccccc1,inactive: 3.1%
17,CC[n+]1c(/C=C/c2c[nH]c3ccccc23)ccc2cc(C)ccc21,inconclusive: 110%
18,COc1ccc(C2(c3ccc(OC)cc3)NC(=O)N(CC(=O)Nc3ccccc3)C2=O)cc1,inconclusive: 124%
19,O=C1/C(=C/c2ccc(N3CCOCC3)o2)SC(=Nc2ccccc2)N1CCc1c[nH]c2ccccc12,inconclusive: 93.8%
20,Cc1ccc(C(OCC(O)CNC(CO)C(O)c2ccc([N+](=O)[O-])cc2)c2ccccc2)cc1 (stereo not given),inactive: 2%
21,Cn1c(=O)c(NCCc2ccccc2)c2c3c(cccc31)C(=O)c1ccccc1-2,inconclusive: 112%
22,Cc1ccc(C2C3CN(C(C)C)CC=C3C(C#N)=C(N)C2(C#N)C#N)cc1 (stereo not given),active: 100%
23,COc1ccc(-[n+]2c(C)cc(/C=C3\Sc4ccccc4N3C)cc2C)cc1,inconclusive: 116%
24,Cc1[nH]c2ccccc2c1/C=C/C(=O)c1ccccc1,inactive: 4.5%
25,CC(=O)OC1COC(OC2C(O)C(C)OC(OC3C(OC4CCC5(C)C(CCC6(C)C5CC=C5C7CC(C)(C)CCC7(C(=O)O)CCC56C)C4(C)CO)OCC(O)C3O)C2O)C(O)C1OC(C)=O (stereo not given),inconclusive: 39.8%
